# In the supplement of paper PMC12819154, “High-throughput peptide-centric local stability assay extends protein–ligand identification to membrane proteins, tissues and bacteria” (Nature Structural & Molecular Biology, 2025):
# Protein sequences, listed by entry. Tags and fused reporters are not part of them. Lines headed by an entry give the natural chain unless they say otherwise; changes in a name come on top.
# UniProt P58735: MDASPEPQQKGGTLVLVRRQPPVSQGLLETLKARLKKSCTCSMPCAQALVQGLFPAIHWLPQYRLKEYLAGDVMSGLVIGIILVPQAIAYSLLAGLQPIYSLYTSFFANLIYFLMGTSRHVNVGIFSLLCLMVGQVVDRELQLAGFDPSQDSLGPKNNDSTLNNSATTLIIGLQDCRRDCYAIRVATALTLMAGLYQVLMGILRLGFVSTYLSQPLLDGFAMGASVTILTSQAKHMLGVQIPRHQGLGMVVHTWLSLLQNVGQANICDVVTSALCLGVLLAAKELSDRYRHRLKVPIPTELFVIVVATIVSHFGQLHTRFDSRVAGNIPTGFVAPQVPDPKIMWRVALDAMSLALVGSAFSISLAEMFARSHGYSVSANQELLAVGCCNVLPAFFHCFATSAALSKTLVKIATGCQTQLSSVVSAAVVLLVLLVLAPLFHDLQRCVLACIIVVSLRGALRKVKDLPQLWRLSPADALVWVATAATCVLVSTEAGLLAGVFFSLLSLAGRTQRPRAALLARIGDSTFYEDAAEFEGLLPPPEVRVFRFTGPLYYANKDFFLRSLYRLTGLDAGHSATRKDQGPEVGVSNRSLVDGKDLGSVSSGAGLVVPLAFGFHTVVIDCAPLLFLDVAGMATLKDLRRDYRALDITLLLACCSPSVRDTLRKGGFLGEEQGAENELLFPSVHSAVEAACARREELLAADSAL
# UniProt P70697: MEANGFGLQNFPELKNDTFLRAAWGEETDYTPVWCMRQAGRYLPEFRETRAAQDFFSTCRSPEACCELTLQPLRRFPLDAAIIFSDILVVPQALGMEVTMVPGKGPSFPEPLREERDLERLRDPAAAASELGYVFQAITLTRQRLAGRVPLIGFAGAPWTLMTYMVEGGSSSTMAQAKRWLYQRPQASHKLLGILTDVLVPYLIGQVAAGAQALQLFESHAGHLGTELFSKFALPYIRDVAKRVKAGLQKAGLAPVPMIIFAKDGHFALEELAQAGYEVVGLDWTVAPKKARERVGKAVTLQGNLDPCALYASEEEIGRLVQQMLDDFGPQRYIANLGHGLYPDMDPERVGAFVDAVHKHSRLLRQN
# UniProt P70194: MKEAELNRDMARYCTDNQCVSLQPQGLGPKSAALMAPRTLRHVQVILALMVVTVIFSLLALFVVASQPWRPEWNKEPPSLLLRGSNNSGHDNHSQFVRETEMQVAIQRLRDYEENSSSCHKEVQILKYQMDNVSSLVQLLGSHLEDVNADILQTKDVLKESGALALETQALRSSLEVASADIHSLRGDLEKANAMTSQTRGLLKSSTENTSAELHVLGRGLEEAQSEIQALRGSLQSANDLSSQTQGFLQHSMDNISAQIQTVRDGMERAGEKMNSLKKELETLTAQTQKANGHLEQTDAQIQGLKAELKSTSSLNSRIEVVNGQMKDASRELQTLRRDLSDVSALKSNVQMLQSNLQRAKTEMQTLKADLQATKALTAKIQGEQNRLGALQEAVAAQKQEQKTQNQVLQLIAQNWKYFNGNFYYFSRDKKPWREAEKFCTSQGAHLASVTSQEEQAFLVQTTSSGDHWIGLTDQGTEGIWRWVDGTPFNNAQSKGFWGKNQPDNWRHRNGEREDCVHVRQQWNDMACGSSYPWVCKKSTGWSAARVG
# UniProt P70372, whole entry: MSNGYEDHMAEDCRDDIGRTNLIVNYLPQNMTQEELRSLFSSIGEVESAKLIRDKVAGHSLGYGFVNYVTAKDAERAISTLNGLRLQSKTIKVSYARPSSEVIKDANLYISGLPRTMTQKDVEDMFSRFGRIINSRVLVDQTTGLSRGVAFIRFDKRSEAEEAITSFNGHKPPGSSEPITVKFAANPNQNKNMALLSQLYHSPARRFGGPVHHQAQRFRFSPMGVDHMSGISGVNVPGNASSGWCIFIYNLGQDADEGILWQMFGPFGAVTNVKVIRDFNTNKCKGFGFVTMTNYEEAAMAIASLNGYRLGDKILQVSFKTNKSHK
# UniProt P59017, whole entry: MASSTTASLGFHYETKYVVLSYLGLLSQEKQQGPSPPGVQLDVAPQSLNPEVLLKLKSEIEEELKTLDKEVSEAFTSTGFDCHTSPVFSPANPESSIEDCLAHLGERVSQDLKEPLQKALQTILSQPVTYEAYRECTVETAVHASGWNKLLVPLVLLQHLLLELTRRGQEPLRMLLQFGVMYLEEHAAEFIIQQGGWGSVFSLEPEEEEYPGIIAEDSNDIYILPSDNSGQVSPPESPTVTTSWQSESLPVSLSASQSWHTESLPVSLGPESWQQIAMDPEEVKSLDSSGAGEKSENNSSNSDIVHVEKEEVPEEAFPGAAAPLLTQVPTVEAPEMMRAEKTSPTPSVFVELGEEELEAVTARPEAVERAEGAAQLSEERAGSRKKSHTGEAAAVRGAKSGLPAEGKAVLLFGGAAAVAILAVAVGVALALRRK
# UniProt P57746, whole entry: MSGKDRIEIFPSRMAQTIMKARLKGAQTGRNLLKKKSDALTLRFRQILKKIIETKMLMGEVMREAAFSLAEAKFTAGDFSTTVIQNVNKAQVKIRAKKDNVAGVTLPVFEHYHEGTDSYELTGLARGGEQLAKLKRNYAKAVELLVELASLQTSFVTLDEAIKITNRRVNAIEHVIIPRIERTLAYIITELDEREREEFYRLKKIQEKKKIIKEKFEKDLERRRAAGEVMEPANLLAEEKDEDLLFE
# UniProt P70280, whole entry: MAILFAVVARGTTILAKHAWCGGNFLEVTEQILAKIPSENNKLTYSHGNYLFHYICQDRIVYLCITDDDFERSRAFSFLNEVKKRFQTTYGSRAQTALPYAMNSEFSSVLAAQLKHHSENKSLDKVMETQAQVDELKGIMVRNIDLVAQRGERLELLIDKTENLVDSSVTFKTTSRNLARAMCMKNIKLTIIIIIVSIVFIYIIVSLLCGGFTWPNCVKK
# UniProt P59034: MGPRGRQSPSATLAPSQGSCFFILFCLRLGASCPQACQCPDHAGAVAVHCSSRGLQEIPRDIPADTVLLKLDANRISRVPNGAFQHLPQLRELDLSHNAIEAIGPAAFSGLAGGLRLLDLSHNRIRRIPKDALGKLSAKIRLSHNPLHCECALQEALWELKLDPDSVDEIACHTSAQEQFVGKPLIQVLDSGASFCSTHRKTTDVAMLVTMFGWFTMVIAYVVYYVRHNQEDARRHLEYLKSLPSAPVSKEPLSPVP
# UniProt P70671: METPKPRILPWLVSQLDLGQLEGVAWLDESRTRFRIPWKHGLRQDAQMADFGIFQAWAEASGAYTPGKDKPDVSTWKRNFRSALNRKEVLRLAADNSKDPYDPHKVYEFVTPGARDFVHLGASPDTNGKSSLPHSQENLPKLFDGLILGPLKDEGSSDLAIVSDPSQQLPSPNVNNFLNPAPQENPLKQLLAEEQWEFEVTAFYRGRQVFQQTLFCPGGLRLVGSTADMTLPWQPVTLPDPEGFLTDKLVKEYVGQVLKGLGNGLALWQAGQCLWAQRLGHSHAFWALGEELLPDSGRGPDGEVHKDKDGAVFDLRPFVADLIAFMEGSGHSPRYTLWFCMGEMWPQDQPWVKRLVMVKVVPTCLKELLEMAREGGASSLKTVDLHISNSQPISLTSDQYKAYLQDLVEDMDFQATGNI
# UniProt P61759, whole entry: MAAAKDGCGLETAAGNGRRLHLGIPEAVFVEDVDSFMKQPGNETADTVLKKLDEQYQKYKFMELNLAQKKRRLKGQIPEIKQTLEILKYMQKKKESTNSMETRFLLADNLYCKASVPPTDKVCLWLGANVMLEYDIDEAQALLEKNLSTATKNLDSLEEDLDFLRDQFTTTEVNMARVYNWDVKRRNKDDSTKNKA
# UniProt P63002: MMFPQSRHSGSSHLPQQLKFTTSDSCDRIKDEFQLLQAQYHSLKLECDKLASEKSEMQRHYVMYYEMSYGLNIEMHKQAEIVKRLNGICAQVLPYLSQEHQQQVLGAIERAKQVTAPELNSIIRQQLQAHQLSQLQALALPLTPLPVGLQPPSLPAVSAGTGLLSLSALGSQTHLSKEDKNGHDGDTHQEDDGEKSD
# UniProt P97348: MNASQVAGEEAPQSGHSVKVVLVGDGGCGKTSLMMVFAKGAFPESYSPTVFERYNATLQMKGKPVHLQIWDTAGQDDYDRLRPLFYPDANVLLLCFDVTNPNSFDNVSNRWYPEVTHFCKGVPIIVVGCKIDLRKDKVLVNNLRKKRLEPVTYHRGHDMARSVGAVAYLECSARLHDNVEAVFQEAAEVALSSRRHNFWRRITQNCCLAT
# UniProt P97449: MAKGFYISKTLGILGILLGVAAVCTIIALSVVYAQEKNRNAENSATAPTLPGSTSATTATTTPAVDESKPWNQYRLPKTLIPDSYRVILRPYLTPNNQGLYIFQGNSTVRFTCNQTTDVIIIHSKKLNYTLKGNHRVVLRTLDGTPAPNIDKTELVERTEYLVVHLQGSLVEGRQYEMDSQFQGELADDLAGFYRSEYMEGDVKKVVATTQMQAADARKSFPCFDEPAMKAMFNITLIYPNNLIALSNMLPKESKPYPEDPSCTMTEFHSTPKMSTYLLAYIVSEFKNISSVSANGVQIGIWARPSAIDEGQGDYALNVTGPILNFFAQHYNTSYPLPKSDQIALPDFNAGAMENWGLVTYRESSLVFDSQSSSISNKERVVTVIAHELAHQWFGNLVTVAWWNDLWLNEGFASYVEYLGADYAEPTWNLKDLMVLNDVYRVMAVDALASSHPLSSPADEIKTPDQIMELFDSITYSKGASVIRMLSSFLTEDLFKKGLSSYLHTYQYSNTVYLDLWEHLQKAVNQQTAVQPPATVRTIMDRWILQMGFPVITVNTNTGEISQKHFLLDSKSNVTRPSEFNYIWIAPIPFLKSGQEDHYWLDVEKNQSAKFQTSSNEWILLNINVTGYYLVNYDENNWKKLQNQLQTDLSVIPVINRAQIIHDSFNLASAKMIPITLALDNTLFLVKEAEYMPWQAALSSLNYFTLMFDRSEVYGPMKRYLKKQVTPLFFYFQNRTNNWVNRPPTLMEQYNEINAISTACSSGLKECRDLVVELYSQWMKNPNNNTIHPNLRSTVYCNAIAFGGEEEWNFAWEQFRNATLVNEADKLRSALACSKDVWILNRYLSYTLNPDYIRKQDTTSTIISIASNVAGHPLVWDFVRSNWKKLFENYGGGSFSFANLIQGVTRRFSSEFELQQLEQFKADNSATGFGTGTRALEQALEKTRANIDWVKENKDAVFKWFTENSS
# UniProt P67778: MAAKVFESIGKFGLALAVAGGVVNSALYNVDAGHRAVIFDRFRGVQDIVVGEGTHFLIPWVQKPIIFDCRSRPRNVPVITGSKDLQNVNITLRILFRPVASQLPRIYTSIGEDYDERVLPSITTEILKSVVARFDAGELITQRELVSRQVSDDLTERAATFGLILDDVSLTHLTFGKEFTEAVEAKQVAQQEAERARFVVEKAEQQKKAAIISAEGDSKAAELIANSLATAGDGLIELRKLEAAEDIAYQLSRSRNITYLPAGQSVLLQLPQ
# UniProt P70353: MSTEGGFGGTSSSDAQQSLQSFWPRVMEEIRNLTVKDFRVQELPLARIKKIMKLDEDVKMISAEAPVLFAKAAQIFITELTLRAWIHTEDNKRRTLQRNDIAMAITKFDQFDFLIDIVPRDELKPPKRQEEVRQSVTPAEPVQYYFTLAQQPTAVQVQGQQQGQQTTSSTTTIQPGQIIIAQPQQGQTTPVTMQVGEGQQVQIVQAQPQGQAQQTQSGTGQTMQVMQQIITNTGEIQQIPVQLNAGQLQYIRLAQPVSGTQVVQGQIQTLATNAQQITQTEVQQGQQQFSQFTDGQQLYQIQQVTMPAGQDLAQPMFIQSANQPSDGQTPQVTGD
# UniProt P70677: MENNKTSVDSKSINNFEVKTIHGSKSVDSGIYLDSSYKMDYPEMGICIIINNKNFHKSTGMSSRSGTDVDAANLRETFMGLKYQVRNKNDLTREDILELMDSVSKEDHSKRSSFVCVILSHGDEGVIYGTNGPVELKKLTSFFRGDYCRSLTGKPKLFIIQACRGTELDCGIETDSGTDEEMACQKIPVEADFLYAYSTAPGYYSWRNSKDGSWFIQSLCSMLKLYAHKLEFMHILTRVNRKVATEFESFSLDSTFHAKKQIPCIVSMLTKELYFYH
# UniProt P80314: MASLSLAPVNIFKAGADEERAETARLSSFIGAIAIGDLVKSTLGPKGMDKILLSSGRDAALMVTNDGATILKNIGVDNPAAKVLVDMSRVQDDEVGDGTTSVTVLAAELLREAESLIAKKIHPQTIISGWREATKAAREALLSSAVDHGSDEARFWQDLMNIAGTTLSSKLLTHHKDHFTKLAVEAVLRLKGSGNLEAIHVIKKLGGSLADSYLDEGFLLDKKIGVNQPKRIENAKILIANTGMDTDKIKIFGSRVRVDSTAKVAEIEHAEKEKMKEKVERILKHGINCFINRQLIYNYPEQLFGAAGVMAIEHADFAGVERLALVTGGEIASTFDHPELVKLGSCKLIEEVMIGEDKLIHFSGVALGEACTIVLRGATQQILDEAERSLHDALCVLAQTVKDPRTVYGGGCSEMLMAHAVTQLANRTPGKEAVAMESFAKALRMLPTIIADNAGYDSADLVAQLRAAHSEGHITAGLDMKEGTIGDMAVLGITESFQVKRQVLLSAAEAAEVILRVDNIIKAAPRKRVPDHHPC
# The other results are listed elsewhere or left out. Small differences around the control level are noise.
# Compound: CN[C@@H]1C[C@H]2O[C@@](C)([C@@H]1OC)n1c3ccccc3c3c4c(c5c6ccccc6n2c5c31)C(=O)NC4 [staurosporine]
# Assay: log2 fold change of pooled soluble protein (PISA), ligand vs vehicle (log2 ratio); higher = more thermally stabilized
# Settings: ligand concentration: 20 uM; assay format: PISA pool 52.9/55.5/58.6 C
row,Target,log2 fold change of pooled soluble protein
1,UniProt P58735,-0.0913
2,UniProt P70697,-0.264
3,UniProt P70158,-0.0431
4,UniProt P59325,-0.0654
5,UniProt P70194,-0.208
6,UniProt P97447,-0.0451
7,UniProt P58137,0.0313
8,UniProt P56695,-0.521
9,UniProt P70372,-0.151
10,UniProt P59017,-0.0603
11,P86048;Q6ZWV3,0.0921
12,UniProt P57746,0.0638
13,UniProt P70280,0.0358
14,UniProt P80316,-0.027
15,UniProt P59034,0.00613
16,UniProt P97287,0.414
17,UniProt P97302,0.0779
18,UniProt P70671,0.161
19,UniProt P97431,0.0991

# For convenience, some entries already given:
row,Target,log2 fold change of pooled soluble protein
2,UniProt P70697,-0.264
3,UniProt P70158,-0.0431
4,UniProt P59325,-0.0654

# The results go on.

row,Target,log2 fold change of pooled soluble protein
1,UniProt P70398,-0.0659
2,UniProt P61759,-0.0794
3,UniProt P63002,-0.589
4,UniProt P59729,0.193
5,UniProt P70349,0.18
6,UniProt P97348,-0.119
7,UniProt P97360,-0.0548
8,UniProt P70389,0.154
9,UniProt P97449,0.0659
10,UniProt P67778,-0.0622
11,UniProt P58021,-0.343
12,UniProt P70353,-0.202
13,UniProt P59672,-0.00169
14,UniProt P63017,-0.114
15,UniProt P63101,-0.139
16,UniProt P70677,-0.112
17,UniProt P80314,0.0181
18,UniProt P82343,-0.00304
19,UniProt P70257,-0.0818
